The text below walks through data of PubChem BioAssay AID328 (DTP/NCI, 2004).

The list shows only some results of the screen, not a fair sample: it gathers tests that were run many times, whatever their T/C, doses with no T/C, and many T/C values between a quarter and a half above the control. Other doses and runs of a compound stand elsewhere. T/C: endpoint of the treated group in % of that of the vehicle group. Some entries give survivors of the animals treated and no T/C: the source holds a T/C of zero for them, seemingly a mark for toxic or unscored doses. Some doses without a T/C left all or most animals alive at the check, yet need not have been tolerated: the source hardly ever lists a survival T/C far under the control, and the zero likely stands for such cases as well. Survivors were counted at the toxicity check, usually on the fifth day, unless a day is given; later deaths do not show. Schedules are NCI's codes, read here as Q, the interval in days (D) or hours (H), X, the number of doses. Some entries were tested several times; the results are listed from low to high. Where survival is the endpoint, this PubChem deposit counts one and a half times the control or more as active, and values a quarter to a half above the control carry no call in these data; other NCI protocols may use other cut-offs. Signs of the kind (2×) count equal records among those shown. Some T/C values carry the count of animals alive at the toxicity check (mostly the fifth day); without a count, all were alive then.

The test system of this assay is BDF1 mice, P388 leukemia ip, median survival T/C. In words: NCI In Vivo Anticancer Drug Screen. Data for tumor model P388 Leukemia (intraperitoneal) in B6D2F1 (BDF1) mice. As to conditions: T/C endpoint: median survival time, higher T/C = longer survival. Summed up:
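Transplantable tumour in mice; compound vs vehicle dosing; survival scored; ratio of treated to control reported.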

The mark [1] stands for this setting: dose: 200.0 mg/kg/injection, schedule: Q01DX009 (ip), vehicle: Klucel (hydroxypropylcellulose) (HPC).
The mark [2] stands for this setting: dose: 50.0 mg/kg/injection, schedule: Q01DX009 (ip), vehicle: saline with Tween-80.
Where [3] appears, read: dose: 200.0 mg/kg/injection, schedule: Q01DX009 (ip), vehicle: saline with Tween-80.
Where [4] appears, read: dose: 6.25 mg/kg/injection, schedule: Q04DX003 (ip), vehicle: saline.
Where [5] appears, read: dose: 25.0 mg/kg/injection, schedule: Q01DX009 (ip), vehicle: saline.
The mark [6] stands for this setting: dose: 400.0 mg/kg/injection, schedule: Q01DX009 (ip), vehicle: saline with Tween-80.
[7] abbreviates: dose: 100.0 mg/kg/injection, schedule: Q01DX009 (ip), vehicle: saline with Tween-80.
[8] abbreviates: dose: 18.0 mg/kg/injection, schedule: Q01DX009 (ip), vehicle: Klucel (hydroxypropylcellulose) (HPC).
Setting [9] is: dose: 28.0 mg/kg/injection, schedule: Q01DX009 (ip), vehicle: Klucel (hydroxypropylcellulose) (HPC).

On to `COc1cccc2c1C(=O)c1c(O)c3c(c(O)c1C2=O)C[C@@](O)(/C(C)=N\O)C[C@@H]3OC1CC(N)C(O)C(C)O1` (stereo not given in full), for which the T/C reads like this: (dose: 3.12 mg/kg/injection, schedule: Q01DX009 (ip), vehicle: water) 134 % of control; (dose: 6.25 mg/kg/injection, schedule: Q01DX009 (ip), vehicle: water) 127 % of control; (dose: 12.5 mg/kg/injection, schedule: Q01DX009 (ip), vehicle: water) 148 % of control; (dose: 25.0 mg/kg/injection, schedule: Q01DX009 (ip), vehicle: water) 145 % of control [5 of 6 alive]. Also, the survivor count (dose: 50.0 mg/kg/injection, schedule: Q01DX009 (ip), vehicle: water) is 5 of 6.

As for `O=C(Nc1ccc2ncccc2c1)Nc1ccc2ncccc2c1`, the survivor count under setting [1] is reported as 6 of 6.

On to `Clc1ccc(-n2nnc3cc(Cl)ccc32)c(Cl)c1`, for which the survivor count is listed as 7 of 7 under setting [2] and 7 of 7 under setting [3].

`O=C1C=CC(=O)N1CCc1ccccc1`: the survivor count (dose: 40.0 mg/kg/injection, schedule: Q04DX003 (ip), vehicle: saline with Tween-80) is 0 of 6.

As for `Nc1ccn(C2CC(O)C(CO)O2)c(=O)n1` (stereo not given), the T/C (dose: 4.6 mg/kg/injection, schedule: Q01DX009 (ip), vehicle: water) was 144 % of control.

Turning to `CC(=O)OC1C(OCc2ccccc2)OC(COCc2ccccc2)C(OC2OC(COCc3ccccc3)C(OCc3ccccc3)C(OCc3ccccc3)C2OCc2ccccc2)C1OCc1ccccc1` (stereo not given), the survivor count (dose: 10.62 mg/kg/injection, schedule: Q01DX009 (ip), vehicle: Klucel (hydroxypropylcellulose) (HPC)) is 6 of 6.

As to `CS(=O)(=O)OCCN(CCOS(C)(=O)=O)c1ccc(C(=O)O)cc1`, the T/C is, setting by setting: (dose: 132.0 mg/kg/injection, schedule: Q04DX003 (ip), vehicle: saline with Tween-80) 145 % of control; (dose: 200.0 mg/kg/injection, schedule: Q04DX003 (ip), vehicle: saline with Tween-80) 136 % of control.

On to `CC(=O)C(Cl)C(C)=O.CC(=O)C(Cl)C(C)=O.CO.CO.[Ni]`, for which the survivor count reads like this: (dose: 100.0 mg/kg/injection, schedule: Q01DX001 (ip), vehicle: Klucel (hydroxypropylcellulose) (HPC)) 1 of 6; (dose: 200.0 mg/kg/injection, schedule: Q01DX001 (ip), vehicle: Klucel (hydroxypropylcellulose) (HPC)) 0 of 6 and 6 of 6; (dose: 400.0 mg/kg/injection, schedule: Q01DX001 (ip), vehicle: Klucel (hydroxypropylcellulose) (HPC)) 0 of 6.

Regarding `C[N+]1=C2CCCC2=C(N)CC1`, the survivor count under setting [4] is reported as 6 of 6.

For the compound `OCCN1CCN(CCCN2c3ccccc3Sc3ccc(C(F)(F)F)cc32)CC1`, the T/C was 126 % of control (dose: 1.25 mg/kg/injection, schedule: Q01DX009 (ip), vehicle: saline); 128 % of control under setting [4]; 135 % of control (dose: 12.5 mg/kg/injection, schedule: Q04DX003 (ip), vehicle: saline); 145 and 148 % of control (dose: 25.0 mg/kg/injection, schedule: Q04DX003 (ip), vehicle: saline). The survivor count is recorded as 4 of 6 (dose: 1.87 mg/kg/injection, schedule: Q01DX009 (ip), vehicle: saline); 6 of 6 (dose: 2.5 mg/kg/injection, schedule: Q01DX009 (ip), vehicle: saline); 6 of 6 (dose: 5.0 mg/kg/injection, schedule: Q01DX009 (ip), vehicle: saline); 6 of 6 (dose: 6.25 mg/kg/injection, schedule: Q01DX009 (ip), vehicle: saline); 6 of 6 (dose: 12.5 mg/kg/injection, schedule: Q01DX009 (ip), vehicle: saline); 6 of 6 under setting [5]. Also, the survivor count (dose: 50.0 mg/kg/injection, schedule: Q01DX009 (ip), vehicle: saline) is listed as 6 of 6.

For the compound `CN1CSC(=S)N(Cc2ccccc2)C1`, the survivor count is reported as 6 of 6 under setting [3] and 6 of 6 under setting [6].

In the case of `Cc1ccc2[nH]c(=S)n(-c3cccc(C(F)(F)F)c3)c(=O)c2c1`, the survivor count under setting [7] was 6 of 6.

As for `Cc1ccc(SC2CC3CC2C2COCC32)cc1` (stereo not given), the survivor count is, setting by setting: (dose: 150.0 mg/kg/injection, schedule: Q01DX009 (ip), vehicle: Klucel (hydroxypropylcellulose) (HPC)) 4 of 6; (dose: 225.0 mg/kg/injection, schedule: Q01DX009 (ip), vehicle: Klucel (hydroxypropylcellulose) (HPC)) 2 of 6.

As to `COc1cc2c(cc1OC)-c1cc3cc(OC)c(OC)cc3c(CCC(=O)O)[n+]1CC2`, the survivor count (dose: 300.0 mg/kg/injection, schedule: Q01DX009 (ip), vehicle: Klucel (hydroxypropylcellulose) (HPC)) is 3 of 3.

`[O-]c1c(Cl)c(Cl)c(O[P+](c2ccccc2)(c2ccccc2)c2ccccc2)c(Cl)c1Cl`: under setting [5], the T/C is 142 % of control.

As for `C1CN(P2(N3CC3)=NP(N3CC3)(N3CC3)=NP(N3CC3)(N3CC3)=N2)CCO1` (stereo not given), the T/C (dose: 3.13 mg/kg/injection, schedule: Q01DX009 (ip), vehicle: saline) was 127 % of control. The survivor count runs as follows: (dose: 100.0 mg/kg/injection, schedule: Q01DX009 (ip), vehicle: saline) 10 of 10 and 6 of 6; (dose: 200.0 mg/kg/injection, schedule: Q01DX009 (ip), vehicle: saline) 2 of 6.

In the case of `Cc1ccn(C)c(=O)c1`, the survivor count (dose: 400.0 mg/kg/injection, schedule: Q01DX009 (ip), vehicle: saline) is 6 of 6.

Consider `Cc1cc(C)cc(CCc2cc(C)cc(C)c2)c1`, for which, for the setting “dose: 100.0 mg/kg/injection, schedule: Q01DX009 (ip), vehicle: Klucel (hydroxypropylcellulose) (HPC)”, the survivor count is on record as 3 of 6.

`O=c1nc(Oc2ccccc2)nc2ncccn12`: the T/C by setting is: (dose: 25.0 mg/kg/injection, schedule: Q01DX009 (ip), vehicle: saline with Tween-80) 140 % of control; under setting [2], 130 % of control [5 of 6 alive]. Besides, the survivor count runs as follows: under setting [2], 5 of 6; under setting [7], 1 of 6 and 2 of 6; under setting [3], 0 of 6.

In the case of `O=c1[nH]c(=O)n(CC(O)c2ccc(Cl)s2)cc1F` (stereo not given), the T/C (dose: 100.0 mg/kg/injection, schedule: Q04DX003 (ip), vehicle: saline with Tween-80) is 126 % of control.

For the compound `COc1ccc2c(c1OC)C1C3CC=CC3C2C2=[N+]1CCc1cc3c(cc12)OCO3` (stereo not given), the survivor count is, setting by setting: (dose: 3.12 mg/kg/injection, schedule: Q01DX009 (ip), vehicle: Klucel (hydroxypropylcellulose) (HPC)) 0 of 6; under setting [8], 4 of 6; under setting [9], 3 of 6; (dose: 40.0 mg/kg/injection, schedule: Q01DX009 (ip), vehicle: Klucel (hydroxypropylcellulose) (HPC)) 1 of 6, 3 of 6, 5 of 6. For the same compound, the T/C is, setting by setting: under setting [8], 125 % of control; under setting [9], 135 % of control (2×).

As for `CC(=O)C/C(C)=N/NC(=O)c1ccncc1`, the survivor count by setting is: (dose: 75.0 mg/kg/injection, schedule: Q01DX009 (ip), vehicle: saline with Tween-80) 7 of 7; (dose: 300.0 mg/kg/injection, schedule: Q01DX009 (ip), vehicle: saline with Tween-80) 7 of 7.

On to `[Cl][Co][Cl].[NH-]CCC[NH-].[NH-]CCC[NH-]`, for which the T/C (dose: 100.0 mg/kg/injection, schedule: Q04DX003 (ip), vehicle: saline) was 130 % of control.

With `FC(F)(F)c1nc2nccnc2[nH]1`, the survivor count is given as 6 of 6 (dose: 100.0 mg/kg/injection, schedule: Q04DX003 (ip), vehicle: Klucel (hydroxypropylcellulose) (HPC)) and 3 of 6 (dose: 400.0 mg/kg/injection, schedule: Q04DX003 (ip), vehicle: Klucel (hydroxypropylcellulose) (HPC)).

On to `O=C(O)/C=C/C(=O)Nc1ccc(Cl)c(Cl)c1`, for which the T/C under setting [1] was 131 % of control.

In the case of `Cc1cc(N(C)C)cc(C)c1N=Nc1cc[n+]([O-])cc1`, the survivor count is recorded as 2 of 6 under setting [3] and 0 of 6 under setting [6].
